This note sets out measurements from paper PMC10307791.

No constants are given. Whether binding was seen depends on the method and setting. Some results given as binding are weak or reduced against the parent protein; the word gives no strength.

The test concerns the target native FtsZ (Myxococcus xanthus) (UniProt Q1D0T7). Put plainly: sedimentation assay (high-speed centrifugation); 10 µM protein, 50 mM Hepes/NaOH pH 7.2, 50 mM KCl, 10 mM MgCl2, 10 mM CaCl2, 1 mM β-mercaptoethanol, 5 mM GTP; 160,000 x g, 1 h, 25 °C; both purified.

B1: native FtsZ (protein, UniProt Q1D0T7 1-405)
chain: MDQFDQNKQAAKIRVVGAGGAGCNAVNTMILSKLDRVDFIAANTDVQALAASKAPTRLQLGQTLTKGLGAGANPEMGREAALESRDQIAAVLEGADMVFVTAGMGGGTGTGAAPIIADIAKSLGCLTVGVVTKPFLFEGNKRRKQAEQGIVELKAAVDTLITIPNQRLLSLSNEPMPLLETFKRADEVLLNAVQGISDLIQYHGYINVDFADVKTIMSDKGIALMGTGNSTGDKRALIAMQQAIASPLLEDVTIDGATGLLINITGGRDMTLQEVNEALTLVHDAADSEAEIIFGSLIDENISDEVKITIIATGFVHRDAPKVRTVAPVVQVPLSRPAPSVLANAREEVASLVPTKGSGSRPLTVESAKSVSARTAVVKDAPLPLDEDQFDIPTFLRRQGQTELP
As to B1, the binding result is “binds”.
